According to article PMC11790007:
No constants are given. Whether binding was seen depends on the method and setting. In cells and extracts the contact can be indirect. Some binding calls cover weakened binding; strength is not graded here.

By UniProt entry, the sequences of proteins in these tests, tags left out.
UniProt Q13619: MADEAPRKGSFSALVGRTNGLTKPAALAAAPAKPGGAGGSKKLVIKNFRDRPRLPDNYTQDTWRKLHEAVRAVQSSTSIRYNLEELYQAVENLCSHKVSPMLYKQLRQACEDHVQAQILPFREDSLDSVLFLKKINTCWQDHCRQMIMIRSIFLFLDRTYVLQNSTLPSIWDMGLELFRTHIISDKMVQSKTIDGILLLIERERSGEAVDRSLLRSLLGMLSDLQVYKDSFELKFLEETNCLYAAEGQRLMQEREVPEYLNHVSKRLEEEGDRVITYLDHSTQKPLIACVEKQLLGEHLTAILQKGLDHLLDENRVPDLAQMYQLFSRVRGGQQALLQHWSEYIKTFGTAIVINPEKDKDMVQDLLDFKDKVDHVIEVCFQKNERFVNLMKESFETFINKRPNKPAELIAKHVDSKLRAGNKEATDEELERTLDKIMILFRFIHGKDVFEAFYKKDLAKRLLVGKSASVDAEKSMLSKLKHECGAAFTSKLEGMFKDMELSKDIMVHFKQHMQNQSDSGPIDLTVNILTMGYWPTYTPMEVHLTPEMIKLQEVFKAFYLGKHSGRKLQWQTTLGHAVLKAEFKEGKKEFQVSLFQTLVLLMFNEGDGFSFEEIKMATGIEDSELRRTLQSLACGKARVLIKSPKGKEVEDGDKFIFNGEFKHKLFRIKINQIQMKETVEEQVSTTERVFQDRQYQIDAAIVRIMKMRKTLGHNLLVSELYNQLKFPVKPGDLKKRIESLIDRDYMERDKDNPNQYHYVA

Biological target: T1, chromobox protein homolog 4 (CBX4) (human (endogenous in J-Lat 10.6)) (UniProt O00257)
T1 sequence: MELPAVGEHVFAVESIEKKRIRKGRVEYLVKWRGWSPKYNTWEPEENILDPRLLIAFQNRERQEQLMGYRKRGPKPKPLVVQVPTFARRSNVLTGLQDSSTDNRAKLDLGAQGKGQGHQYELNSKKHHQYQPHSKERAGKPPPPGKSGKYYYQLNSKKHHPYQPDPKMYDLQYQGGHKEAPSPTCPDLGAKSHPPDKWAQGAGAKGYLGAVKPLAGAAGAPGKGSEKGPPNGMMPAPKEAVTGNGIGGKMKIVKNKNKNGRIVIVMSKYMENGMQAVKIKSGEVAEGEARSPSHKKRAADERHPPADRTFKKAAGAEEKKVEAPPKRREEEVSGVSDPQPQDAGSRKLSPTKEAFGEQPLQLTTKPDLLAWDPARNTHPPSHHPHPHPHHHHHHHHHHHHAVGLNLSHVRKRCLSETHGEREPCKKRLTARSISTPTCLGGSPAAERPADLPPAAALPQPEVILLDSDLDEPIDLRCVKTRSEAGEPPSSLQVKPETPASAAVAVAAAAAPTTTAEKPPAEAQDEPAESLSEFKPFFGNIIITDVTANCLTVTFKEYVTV
Assay: co-IP; endogenous proteins; cells treated with 20 µM TA for 24 h, 4 µM MG132 added 16 h before collection; lysis in RIPA buffer (150 mM NaCl, 50 mM Tris-HCl pH 7.5, 1 mM EDTA, 1% NP40, 0.5% Triton X-100); immunoprecipitated with anti-CBX4 on Protein A + G magnetic beads at 4°C, western blot with anti-CBX4 and anti-CUL4A

Substance: cullin 4A (CUL4A) (from UniProt Q13619 1-759)
- binding: binds
